Data from paper PMC11496107.
Positions count from the first letter of the chain named. Numbers in names are those of the source. Results are given in words; binding and its absence hold for the method and conditions named. Some results given as binding are weak or reduced against the parent protein; the word gives no strength. Tags and fused reporters may be left off the sequences shown.

The chains behind the UniProt entries cited, without tags or fusion partners. Residues count along the entry.
UniProt Q15788, residues 570-780: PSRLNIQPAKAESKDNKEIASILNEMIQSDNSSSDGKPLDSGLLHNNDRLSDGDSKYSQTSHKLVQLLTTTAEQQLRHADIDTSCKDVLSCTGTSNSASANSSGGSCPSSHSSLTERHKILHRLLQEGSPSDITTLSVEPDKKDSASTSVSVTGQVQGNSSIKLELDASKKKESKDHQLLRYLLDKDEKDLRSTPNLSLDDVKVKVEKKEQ

B1: LXRα-VP16 (wild-type liver X receptor-α fused to VP16) (receptor, UniProt Q13133-1 1-447)
chain: MSLWLGAPVPDIPPDSAVELWKPGAQDASSQAQGGSSCILREEARMPHSAGGTAGVGLEAAEPTALLTRAEPPSEPTEIRPQKRKKGPAPKMLGNELCSVCGDKASGFHYNVLSCEGCKGFFRRSVIKGAHYICHSGGHCPMDTYMRRKCQECRLRKCRQAGMREECVLSEEQIRLKKLKRQEEEQAHATSLPPRASSPPQILPQLSPEQLGMIEKLVAAQQQCNRRSFSDRLRVTPWPMAPDPHSREARQQRFAHFTELAIVSVQEIVDFAKQLPGFLQLSREDQIALLKTSAIEVMLLETSRRYNPGSESITFLKDFSYNREDFAKAGLQVEFINPIFEFSRAMNELQLNDAEFALLIAISIFSADRPNVQDQLQVERLQHTYVEALHAYVSIHHPHDRLMFPRMLMKLVSLRTLSSVHSEQVFALRLQDKKLPPLLSEIWDVHE
B2: LXRα-VP16 p.L217P (receptor, UniProt Q13133-1 1-447)
chain: B1 chain with L217P
B3: LXRα-VP16 p.M346V (receptor, UniProt Q13133-1 1-447)
chain: B1 chain with M346V

Target: Gal4-SRC1 (aa 570-780) (UniProt Q15788)
Assay: two-hybrid; mammalian two-hybrid in HEK293 cells: LXRα-VP16 with Gal4-SRC1 (aa 570-780) or Gal4-NCoR (ID 1 + 2) and a UAS-TK-Luc reporter; increasing doses of T0901317 for 20 h; firefly/Renilla luciferase as % of WT

Row | binding | Binder
1 | binds | B1
2 | binds | B2
3 | binds | B3
